# Microarray screen: hit calls

Targets (5′ to 3′):
SAM-II: SAM-II riboswitch RNA pseudoknot, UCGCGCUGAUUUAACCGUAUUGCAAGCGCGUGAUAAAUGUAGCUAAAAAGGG. Hit rate about 1% of about 21,000 compounds.
TPP: TPP riboswitch RNA three-way junction, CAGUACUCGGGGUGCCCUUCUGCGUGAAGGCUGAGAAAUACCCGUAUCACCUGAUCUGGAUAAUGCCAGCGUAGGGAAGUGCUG. Hit rate about 0.7% of about 24,000 compounds.
PreQ1: PreQ1 riboswitch RNA pseudoknot, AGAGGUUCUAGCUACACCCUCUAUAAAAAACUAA. From B. subtilis. Hit rate about 0.7% of about 24,000 compounds.

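Compounds were printed on reactive glass slides in duplicate spots, a dye-labelled oligonucleotide was laid over them, and the fluorescence left after washing was read. For the PreQ1, TPP and SAM-II riboswitches the laboratory earlier reported (doi:10.1038/s41467-019-09493-3) 1 µM RNA, 2 h, and a rule that included a mean Z-score above 3 (spot signal-to-noise against the whole library), a score well above that on a control array, and duplicate spots agreeing (coefficient of variation under 100). The data file gives only the calls; its cut-offs may differ, and compounds hitting several targets are kept. These are primary screening calls, not affinities; a compound without a hit may have attached poorly or may still bind in solution.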
Key: hit = hit, none = tested without a hit.
Compounds were drawn at random from those tested, without regard to their results.
A target missing from an entry has no call listed here.
A dash means that no call is listed here.

structure,SAM-II,TPP,PreQ1
COc1ccc([C@H]2CN(C(=O)CCn3c(C)cccc3=O)C[C@@H]2N)cc1,none,none,none
CCOc1ccccc1NC1c2ccccc2C(=O)N1c1ccc(Cl)cn1 (stereo not given),none,none,none
CC1=C(C(=O)OCc2ccccc2)C(c2ccsc2)C(C#N)=C(N)O1 (stereo not given),none,none,none
NCCCC(N)CC(=O)NC1CNC(=O)C(C2CC(O)C=C(N)N2)NC(=O)C(=CNC(N)=O)NC(=O)C(CO)NC(=O)C(CO)NC1=O (stereo not given),none,none,none
C1=Cc2ccccc2Nc2ccccc21,none,none,none
Cn1c(=O)c2c(ncn2CCO)n(C)c1=O,none,none,none
CCCCn1c(=N)n(CC(O)COc2ccccc2OC)c2ccccc21 (stereo not given),none,none,none
Nc1nnc(SCC(=O)N2CCc3ccccc3C2)s1,none,none,none
O=C(CCc1cc2n(n1)CCCNC2)N1CCC(c2ccccc2Cl)C1 (stereo not given),none,none,none
Cc1cc(Nc2ccc(Cl)cc2)c2ccc(C(F)(F)F)cc2n1,none,none,none
N#CC1=C(N)N(c2ccccc2F)C2=C(C(=O)CCC2)C1c1ccsc1 (stereo not given),none,none,none
COc1ccccc1-n1cc(C(=O)N(CCO)Cc2ccccc2)cn1,none,none,none
O=C(NC1CC1)c1cc2n(n1)CCCNC2,none,none,none
O=C(NCCO)c1nnc(-c2cccc(Cl)c2)o1,none,none,none
COC(=O)C1=C(N)OC(C)=C(C(=O)OC(C)C)C12C(=O)N(C)c1ccccc12 (stereo not given),none,none,none
Cc1cccc(NC(=O)CNC(C)CCc2ccco2)c1C (stereo not given),none,none,none
COC(=O)c1cc2n(n1)CCN(C(=O)CC1=CCNCC1)C2,none,none,none
C=CCn1c(=N)n(CC(O)c2ccc(Br)cc2)c2ccccc21.Cl (stereo not given),none,none,none
COc1ccc(-c2noc(Nc3cc(C)c(Cl)cc3OC)n2)cc1,-,none,none
COCCNc1oc(-c2ccccc2)nc1S(=O)(=O)c1ccc(Cl)cc1,-,none,none
Nc1nc(CCCNC2CCN(c3ncnc4ccsc34)CC2)cs1,none,none,none
CCn1c(CC2CCNCC2)nn(Cc2nc(-c3ccc(C)cc3)oc2C)c1=O,none,none,none
O=C(Nc1ccccc1C(=O)NCCO)c1ccco1,none,none,none
O=C(NC1(N2CCOCC2)CC1)c1ccc(Cl)cc1,none,none,none
CC(C)(NC1CCNCC1)c1cccc2ccccc12,none,none,none
CC(NCc1nc2ccccc2n1C)C12CC3CC(CC(C3)C1)C2 (stereo not given),none,none,none
FC(F)(F)c1cccc(OCC#CCN2CCNCC2)c1,none,none,none
N#Cc1cc(NCC2CCCO2)c([N+](=O)[O-])cc1C#N (stereo not given),none,none,none
COc1ccc([N+](=O)[O-])cc1NS(=O)(=O)c1ccc(C)cc1,none,none,none
O=c1n(CCCN2CCN(c3cccc(Cl)c3)CC2)nc2ccccn12,none,none,none
Clc1ccc(-c2noc(-c3cccnc3NCCc3ccccc3)n2)cc1,-,none,none
O[C@H]1C[C@@H]2CN(Cc3ccc(OCc4ccccc4)cc3)C[C@@H]2C[C@@H]1O,none,none,none
CC(C)(CO)NCc1ccccc1OCc1ccc(Cl)cc1,none,none,none
O=S(=O)(F)Cc1ccccc1,none,none,none
Cc1n[nH]c2c([N+](=O)[O-])c(=O)[nH]c(=O)n12,none,none,none
CCOC(=O)c1cnc2c(-c3ccc(OC)cc3)c(COC)nn2c1N,-,none,none
CC(=O)O[C@@]12CO[C@H]1C[C@H](O)[C@@]1(C)C(=O)[C@H](O)C3=C(C)[C@@H](O)C[C@@](O)([C@@H](OC(=O)c4ccccc4)[C@@H]21)C3(C)C,none,none,none
OCCC1CN(Cc2c(Cl)cncc2Cl)CCN1Cc1ccco1 (stereo not given),none,none,none
Cc1ccsc1CN(C)C(=O)[C@H](N)CC(C)C,none,none,none
Fc1cccc(-c2nccn2CCC2CCCCN2)c1F (stereo not given),none,none,none
Cc1ccc(CNC(=O)c2nnn(CC(=O)Nc3cccc(C)c3)c2N)cc1,none,none,none
COc1ccc([C@@H]2CN(C(=O)Cn3nnnc3N)[C@@H]3C4CCN(CC4)[C@@H]32)cc1,none,none,none
CN(C)CCNc1nc(-c2cccnc2)nc2ccccc12,none,none,none
CN(C)c1ccc(NC2CC(=O)N(c3cccc(Cl)c3)C2=O)cc1 (stereo not given),none,none,none
Nc1ccc2nc(SCC(=O)NC3CC3)sc2c1,none,none,none
O=C(O)/C=C/C(=O)Nc1cccc2cccnc12,none,none,none
CCN(CC)S(=O)(=O)c1ccc(-c2nc(C#N)c(NCC(C)C)o2)cc1,-,none,none
COC(=O)COc1ccc(OC)c(N)c1,none,none,none
CC(C)CN(CCNCc1c(C(=O)O)n(C)c2ccccc12)CC(C)C,-,none,none
Cc1cccc(-c2noc(-c3cccnc3NCCc3ccccc3)n2)c1,-,none,none
CC(NC(=O)c1ccc2nc(-c3ccc(F)cc3)cn2c1)c1nnc(N)s1 (stereo not given),none,none,none
CC(Cn1cncn1)NCC1(N2CCCCC2)CCCCC1 (stereo not given),none,none,none
Cc1ccc(OCCCn2c(CO)nc3ccccc32)cc1,-,none,none
c1ccc(-c2ccc(CNCCc3c[nH]c4ccccc34)o2)cc1,-,none,none
CC(=O)Nc1nc(=O)c(CCCOc2ccc([N+](=O)[O-])cc2)c(C)[nH]1,none,none,none
CCCCNc1nc2c(-c3cccc(F)c3)nnn2c2ccccc12,none,none,none
CCCCSc1nc(N)cc(N2CC(Oc3ccccc3F)C2)n1,none,none,none
CSCCC(O)C(=O)N1CCN(c2cccc(Cl)c2)C(=O)C1 (stereo not given),none,none,none
Cc1nc(C)c(C)c(NCc2cccnc2N)n1,none,none,none
N#CC1=C(N)OC2=C(C(=O)CC(c3ccccc3)C2)C1c1ccc(F)cc1 (stereo not given),none,none,none
CN(C)c1nc(Cc2ccc(NC(=O)c3ccc(C(F)(F)F)cc3)cc2)nc(N(C)C)c1CC(=O)O,none,none,none
CC(CC(C#N)(c1ccccc1)c1ccccc1)N1CCCCC1 (stereo not given),none,none,none
CC[C@H](C=C[C@@H](C)[C@H]1CC[C@H]2[C@@H]3CC=C4C[C@@H](O)CC[C@]4(C)[C@@H]3CC[C@]12C)C(C)C,none,none,none
c1cc2c(cc1Cn1cc(C3CCCNC3)nn1)CCCO2 (stereo not given),none,none,none
CCC(CO)N(Cc1cccnc1)C(=O)c1cccc(-c2ccccc2OC)c1 (stereo not given),none,none,none
Cc1ccc(N2CC[C@@H](NC(=O)c3ccccn3)[C@H](O)C2)nn1,none,none,none
Cc1ccc(NC2c3ccccc3C(=O)N2Cc2ccccc2)c(C)c1 (stereo not given),none,none,none
CCOc1ccc(CN2CCN(c3ncccc3Cl)CC2CCO)cc1 (stereo not given),none,none,none
CC(C)c1nccn1CCCNCC1(O)CCNC1 (stereo not given),none,none,none
OC(c1ccccc1)c1nn(CN2CCOCC2)c(=S)n1-c1ccccc1 (stereo not given),none,none,none
O=C(c1cc(Cc2n[nH]c(=O)c3ccccc23)ccc1F)N1CCN(C(=O)C2CC2)CC1,none,none,none
Nc1c(C(=O)c2ccc(Br)s2)oc2ccccc12,none,none,none
COc1cccc(/C=C/c2nccc3ccccc23)c1OC,none,none,none
Nc1nc(SCc2ccc(Cl)cc2Cl)ns1,none,none,none
O=C(N[C@H]1CC[C@H](O)CC1)C1CCCN1C(=O)C1CCCCC1 (stereo not given in full),none,none,none
CCc1nccn1CCCNC(=O)[C@H]1CC[C@@H](N)C1,none,none,none
Cc1nc2ccc(S(=O)(=O)N[C@@H]3C[C@@H](CO)N(C)C3)cc2s1,none,none,none

For reference, 5 entries once more:

- Fc1cccc(-c2nccn2CCC2CCCCN2)c1F (stereo not given) | SAM-II: none; TPP: none; PreQ1: none
- CN(C)CCNc1nc(-c2cccnc2)nc2ccccc12 | SAM-II: none; TPP: none; PreQ1: none
- CCc1nccn1CCCNC(=O)[C@H]1CC[C@@H](N)C1 | SAM-II: none; TPP: none; PreQ1: none
- N#CC1=C(N)N(c2ccccc2F)C2=C(C(=O)CCC2)C1c1ccsc1 (stereo not given) | SAM-II: none; TPP: none; PreQ1: none
- N#Cc1cc(NCC2CCCO2)c([N+](=O)[O-])cc1C#N (stereo not given) | SAM-II: none; TPP: none; PreQ1: none

Data from the ROBIN nucleic acid binder screens, doi:10.1002/anie.202211358.